Binding data for 16 molecules are collected here from doi:10.1101/2024.09.30.615666.

Amino acid sequences for entries named in this document (tags omitted).
UniProt P12270: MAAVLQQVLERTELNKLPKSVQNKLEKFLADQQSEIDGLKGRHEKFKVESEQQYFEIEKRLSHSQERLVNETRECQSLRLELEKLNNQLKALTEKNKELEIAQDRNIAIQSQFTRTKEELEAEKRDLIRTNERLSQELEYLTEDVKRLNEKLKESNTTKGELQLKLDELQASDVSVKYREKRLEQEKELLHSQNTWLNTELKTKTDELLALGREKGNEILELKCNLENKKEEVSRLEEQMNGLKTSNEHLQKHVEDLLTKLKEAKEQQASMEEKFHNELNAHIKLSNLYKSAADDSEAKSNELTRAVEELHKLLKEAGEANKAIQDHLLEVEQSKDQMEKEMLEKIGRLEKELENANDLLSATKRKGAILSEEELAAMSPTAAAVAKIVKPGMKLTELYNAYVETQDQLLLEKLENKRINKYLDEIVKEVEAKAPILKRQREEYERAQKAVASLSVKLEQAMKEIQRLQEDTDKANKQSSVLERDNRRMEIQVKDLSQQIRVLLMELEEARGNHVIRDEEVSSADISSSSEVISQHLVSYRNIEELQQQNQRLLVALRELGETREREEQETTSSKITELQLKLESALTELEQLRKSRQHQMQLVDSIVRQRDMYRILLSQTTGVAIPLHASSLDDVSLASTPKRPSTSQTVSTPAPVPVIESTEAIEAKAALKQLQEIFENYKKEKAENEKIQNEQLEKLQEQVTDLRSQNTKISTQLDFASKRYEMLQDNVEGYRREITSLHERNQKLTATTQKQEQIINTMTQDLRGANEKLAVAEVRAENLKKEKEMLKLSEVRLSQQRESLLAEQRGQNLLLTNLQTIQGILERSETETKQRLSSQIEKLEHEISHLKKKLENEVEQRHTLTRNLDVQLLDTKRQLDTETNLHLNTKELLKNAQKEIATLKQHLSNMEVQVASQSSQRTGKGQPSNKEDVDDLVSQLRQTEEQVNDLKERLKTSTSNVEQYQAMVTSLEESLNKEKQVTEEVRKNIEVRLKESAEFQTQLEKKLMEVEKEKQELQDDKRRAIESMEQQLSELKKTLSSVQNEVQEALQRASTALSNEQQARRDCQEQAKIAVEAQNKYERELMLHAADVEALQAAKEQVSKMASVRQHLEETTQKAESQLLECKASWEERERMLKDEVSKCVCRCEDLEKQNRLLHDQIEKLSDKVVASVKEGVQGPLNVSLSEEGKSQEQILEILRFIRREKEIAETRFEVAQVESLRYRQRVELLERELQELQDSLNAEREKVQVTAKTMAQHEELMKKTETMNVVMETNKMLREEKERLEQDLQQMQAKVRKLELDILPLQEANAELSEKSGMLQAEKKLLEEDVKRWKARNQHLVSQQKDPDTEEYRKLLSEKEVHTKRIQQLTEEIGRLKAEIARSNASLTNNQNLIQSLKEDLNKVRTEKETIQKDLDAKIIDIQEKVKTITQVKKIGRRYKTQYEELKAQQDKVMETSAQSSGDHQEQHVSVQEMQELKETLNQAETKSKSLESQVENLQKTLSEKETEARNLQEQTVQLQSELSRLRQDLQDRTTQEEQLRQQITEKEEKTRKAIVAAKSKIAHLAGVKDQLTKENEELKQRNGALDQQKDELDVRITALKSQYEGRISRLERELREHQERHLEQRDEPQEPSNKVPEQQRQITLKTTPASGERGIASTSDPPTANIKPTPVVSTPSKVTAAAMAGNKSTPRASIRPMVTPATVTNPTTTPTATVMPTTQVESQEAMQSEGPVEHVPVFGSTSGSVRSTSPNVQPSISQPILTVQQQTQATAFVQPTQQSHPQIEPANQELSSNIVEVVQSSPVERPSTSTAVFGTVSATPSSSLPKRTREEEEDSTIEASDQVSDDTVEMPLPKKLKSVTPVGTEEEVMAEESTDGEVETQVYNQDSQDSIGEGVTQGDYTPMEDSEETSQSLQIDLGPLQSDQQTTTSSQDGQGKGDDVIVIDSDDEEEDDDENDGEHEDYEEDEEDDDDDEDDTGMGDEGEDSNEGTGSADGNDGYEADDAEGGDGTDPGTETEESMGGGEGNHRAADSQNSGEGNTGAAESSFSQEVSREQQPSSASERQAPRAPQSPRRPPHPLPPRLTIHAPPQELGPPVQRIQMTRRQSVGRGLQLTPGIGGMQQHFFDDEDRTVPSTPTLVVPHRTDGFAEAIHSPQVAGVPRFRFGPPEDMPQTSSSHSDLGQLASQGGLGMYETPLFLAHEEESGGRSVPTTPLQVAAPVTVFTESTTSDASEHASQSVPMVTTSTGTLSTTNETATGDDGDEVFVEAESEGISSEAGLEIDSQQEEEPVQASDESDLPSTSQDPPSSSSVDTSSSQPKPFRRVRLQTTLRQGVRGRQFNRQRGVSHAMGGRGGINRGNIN
UniProt P49790: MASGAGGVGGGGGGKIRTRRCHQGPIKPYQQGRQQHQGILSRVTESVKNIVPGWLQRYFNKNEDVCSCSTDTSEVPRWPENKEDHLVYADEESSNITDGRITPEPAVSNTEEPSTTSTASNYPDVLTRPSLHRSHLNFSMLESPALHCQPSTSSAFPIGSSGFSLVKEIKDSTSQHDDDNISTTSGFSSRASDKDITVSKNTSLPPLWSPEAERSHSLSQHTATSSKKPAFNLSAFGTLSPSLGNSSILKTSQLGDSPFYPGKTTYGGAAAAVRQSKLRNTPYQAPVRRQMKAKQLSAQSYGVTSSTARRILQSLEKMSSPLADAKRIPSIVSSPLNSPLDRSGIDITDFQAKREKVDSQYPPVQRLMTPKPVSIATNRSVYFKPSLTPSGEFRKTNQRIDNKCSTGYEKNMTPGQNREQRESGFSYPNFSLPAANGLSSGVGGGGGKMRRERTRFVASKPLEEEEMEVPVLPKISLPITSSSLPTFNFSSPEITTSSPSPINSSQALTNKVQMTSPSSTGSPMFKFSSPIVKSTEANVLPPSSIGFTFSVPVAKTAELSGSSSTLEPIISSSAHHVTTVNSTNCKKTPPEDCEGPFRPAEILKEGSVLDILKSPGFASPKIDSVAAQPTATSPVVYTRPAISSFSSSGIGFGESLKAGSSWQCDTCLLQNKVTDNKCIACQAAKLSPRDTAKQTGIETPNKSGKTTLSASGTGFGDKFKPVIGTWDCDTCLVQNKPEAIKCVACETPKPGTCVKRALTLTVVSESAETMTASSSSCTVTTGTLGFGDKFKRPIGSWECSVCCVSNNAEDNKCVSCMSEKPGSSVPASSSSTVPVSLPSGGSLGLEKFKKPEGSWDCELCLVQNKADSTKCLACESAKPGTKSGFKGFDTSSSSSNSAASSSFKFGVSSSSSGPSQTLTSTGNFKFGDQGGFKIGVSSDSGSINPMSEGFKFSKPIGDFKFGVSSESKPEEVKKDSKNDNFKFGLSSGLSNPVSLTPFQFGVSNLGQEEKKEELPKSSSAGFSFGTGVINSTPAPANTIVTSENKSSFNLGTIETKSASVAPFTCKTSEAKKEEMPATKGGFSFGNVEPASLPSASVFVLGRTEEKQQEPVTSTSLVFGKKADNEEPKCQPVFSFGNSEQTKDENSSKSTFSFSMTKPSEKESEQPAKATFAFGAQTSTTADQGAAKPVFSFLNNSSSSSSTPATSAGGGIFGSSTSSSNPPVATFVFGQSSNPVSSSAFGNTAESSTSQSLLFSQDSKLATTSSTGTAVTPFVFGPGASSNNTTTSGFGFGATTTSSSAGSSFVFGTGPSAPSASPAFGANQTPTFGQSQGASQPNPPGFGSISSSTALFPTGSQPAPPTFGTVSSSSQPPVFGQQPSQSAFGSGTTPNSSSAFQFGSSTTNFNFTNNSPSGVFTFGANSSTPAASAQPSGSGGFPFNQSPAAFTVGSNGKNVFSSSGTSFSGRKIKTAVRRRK
UniProt Q9UNP9: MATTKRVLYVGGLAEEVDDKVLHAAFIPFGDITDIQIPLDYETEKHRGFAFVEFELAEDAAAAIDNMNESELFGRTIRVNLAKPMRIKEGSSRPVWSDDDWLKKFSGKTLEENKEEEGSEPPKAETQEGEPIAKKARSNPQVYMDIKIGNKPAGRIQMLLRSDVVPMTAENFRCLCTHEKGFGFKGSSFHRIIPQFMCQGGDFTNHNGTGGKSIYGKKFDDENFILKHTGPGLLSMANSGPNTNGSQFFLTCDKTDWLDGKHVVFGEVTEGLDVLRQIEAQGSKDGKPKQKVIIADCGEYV
UniProt Q13838: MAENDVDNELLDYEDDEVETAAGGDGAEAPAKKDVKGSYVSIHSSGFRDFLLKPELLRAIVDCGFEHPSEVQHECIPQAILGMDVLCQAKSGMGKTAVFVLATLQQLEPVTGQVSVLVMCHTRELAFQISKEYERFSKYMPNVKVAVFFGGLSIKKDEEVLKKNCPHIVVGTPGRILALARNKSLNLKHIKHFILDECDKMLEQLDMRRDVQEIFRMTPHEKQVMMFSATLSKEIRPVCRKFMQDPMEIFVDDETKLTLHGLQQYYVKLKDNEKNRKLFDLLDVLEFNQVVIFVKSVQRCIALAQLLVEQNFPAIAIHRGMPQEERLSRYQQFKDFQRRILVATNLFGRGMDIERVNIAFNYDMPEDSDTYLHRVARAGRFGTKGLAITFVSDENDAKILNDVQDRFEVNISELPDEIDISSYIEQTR
UniProt Q8TEQ6: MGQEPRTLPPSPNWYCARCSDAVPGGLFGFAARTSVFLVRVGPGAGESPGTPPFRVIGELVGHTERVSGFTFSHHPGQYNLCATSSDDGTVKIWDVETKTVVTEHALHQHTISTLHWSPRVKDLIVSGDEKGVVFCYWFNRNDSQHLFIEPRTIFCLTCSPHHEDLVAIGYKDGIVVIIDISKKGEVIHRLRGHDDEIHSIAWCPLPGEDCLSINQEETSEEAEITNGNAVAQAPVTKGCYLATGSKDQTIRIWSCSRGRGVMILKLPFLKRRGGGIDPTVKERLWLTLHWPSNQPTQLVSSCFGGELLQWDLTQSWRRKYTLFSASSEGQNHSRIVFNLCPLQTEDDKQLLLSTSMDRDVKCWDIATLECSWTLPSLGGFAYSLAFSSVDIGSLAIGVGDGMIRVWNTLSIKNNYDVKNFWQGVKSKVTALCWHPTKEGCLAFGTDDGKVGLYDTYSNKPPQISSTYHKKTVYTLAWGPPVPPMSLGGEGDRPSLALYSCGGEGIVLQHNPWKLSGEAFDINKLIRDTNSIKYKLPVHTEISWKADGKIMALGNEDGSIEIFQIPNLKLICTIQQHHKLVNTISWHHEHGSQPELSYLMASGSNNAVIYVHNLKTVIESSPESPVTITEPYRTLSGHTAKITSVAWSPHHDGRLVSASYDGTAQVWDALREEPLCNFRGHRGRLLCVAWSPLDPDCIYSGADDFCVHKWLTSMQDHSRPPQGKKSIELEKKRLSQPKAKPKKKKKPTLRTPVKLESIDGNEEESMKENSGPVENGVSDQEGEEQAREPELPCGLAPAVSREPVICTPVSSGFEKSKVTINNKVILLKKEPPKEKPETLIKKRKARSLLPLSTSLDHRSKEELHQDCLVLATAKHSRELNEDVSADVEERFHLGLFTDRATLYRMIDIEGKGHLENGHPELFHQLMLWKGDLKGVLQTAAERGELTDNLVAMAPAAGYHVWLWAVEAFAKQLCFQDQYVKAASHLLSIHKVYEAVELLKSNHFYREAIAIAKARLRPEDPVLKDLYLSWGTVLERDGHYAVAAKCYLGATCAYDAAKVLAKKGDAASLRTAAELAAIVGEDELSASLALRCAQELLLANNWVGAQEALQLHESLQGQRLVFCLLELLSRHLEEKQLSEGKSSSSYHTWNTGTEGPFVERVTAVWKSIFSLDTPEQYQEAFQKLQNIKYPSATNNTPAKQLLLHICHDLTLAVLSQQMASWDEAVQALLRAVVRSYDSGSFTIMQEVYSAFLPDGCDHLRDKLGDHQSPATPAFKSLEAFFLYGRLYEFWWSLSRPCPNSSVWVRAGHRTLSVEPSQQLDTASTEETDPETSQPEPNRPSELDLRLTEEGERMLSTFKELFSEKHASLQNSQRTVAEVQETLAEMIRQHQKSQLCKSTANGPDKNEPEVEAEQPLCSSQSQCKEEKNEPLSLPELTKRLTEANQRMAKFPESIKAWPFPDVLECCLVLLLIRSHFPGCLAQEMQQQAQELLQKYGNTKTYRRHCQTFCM
UniProt P50750: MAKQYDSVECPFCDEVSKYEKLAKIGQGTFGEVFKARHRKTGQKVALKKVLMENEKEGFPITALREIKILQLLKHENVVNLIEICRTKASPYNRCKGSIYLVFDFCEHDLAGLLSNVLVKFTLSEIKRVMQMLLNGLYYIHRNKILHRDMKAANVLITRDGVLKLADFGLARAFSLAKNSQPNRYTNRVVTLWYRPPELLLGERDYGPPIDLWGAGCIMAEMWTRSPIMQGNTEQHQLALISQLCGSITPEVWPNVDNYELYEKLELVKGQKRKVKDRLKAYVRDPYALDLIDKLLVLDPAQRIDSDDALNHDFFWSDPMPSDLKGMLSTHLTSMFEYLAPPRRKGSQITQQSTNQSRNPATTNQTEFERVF

No constants are given. Whether binding was seen depends on the method and setting. Binding seen in cells or lysates may run through a third protein. A yes stands for co-enrichment or nearness to the bait. Other partners may have been found.

The target in assay [1] is TPR-BiraA (UniProt P12270). The assay can be described thus: proximity labelling.
Assay [2] deals with Nup153-BirA (UniProt P49790). Description: proximity labelling.

With PPIE (from UniProt Q9UNP9 1-301), the binding result in assay [1] and in assay [2] was “binds” throughout.
As to DDX39b (from UniProt Q13838 1-428), the binding entry in assay [1] and in assay [2] was “binds” each time.
As to FUS (from UniProt P35637 1-526), the binding entry in assay [1] and in assay [2] was “binds” each time.
Regarding Med1 (from UniProt Q15648 1-1581), the binding result in assay [1] and in assay [2] was “binds” throughout.
Turning to GEMIN5 (from UniProt Q8TEQ6 1-1508), the binding result in assay [1] and in assay [2] was “binds” throughout.
As to CDK9 (from UniProt P50750 1-372), the binding result in assay [1] and in assay [2] was “binds” in each case.
On to IPO5 (from UniProt O00410 1-1097), for which the binding result in assay [1] and in assay [2] was “binds” throughout.
For the molecule TADA3 (from UniProt O75528 1-432), the binding entry in assay [1] and in assay [2] was “binds” in each case.
For TNPO1 (from UniProt Q92973 1-898), the binding result in assay [1] and in assay [2] was “binds” each time.
Regarding TAF9b (from UniProt Q9HBM6 1-251), the binding entry in assay [1] and in assay [2] was “binds” throughout.

B1: AQR (protein, UniProt O60306 1-1485)
chain: MAAPAQPKKIVAPTVSQINAEFVTQLACKYWAPHIKKKSPFDIKVIEDIYEKEIVKSRFAIRKIMLLEFSQYLENYLWMNYSPEVSSKAYLMSICCMVNEKFRENVPAWEIFKKKPDHFPFFFKHILKAALAETDGEFSLHEQTVLLLFLDHCFNSLEVDLIRSQVQQLISLPMWMGLQLARLELELKKTPKLRKFWNLIKKNDEKMDPEAREQAYQERRFLSQLIQKFISVLKSVPLSEPVTMDKVHYCERFIELMIDLEALLPTRRWFNTILDDSHLLVHCYLSNLVRREEDGHLFSQLLDMLKFYTGFEINDQTGNALTENEMTTIHYDRITSLQRAAFAHFPELYDFALSNVAEVDTRESLVKFFGPLSSNTLHQVASYLCLLPTLPKNEDTTFDKEFLLELLVSRHERRISQIQQLNQMPLYPTEKIIWDENIVPTEYYSGEGCLALPKLNLQFLTLHDYLLRNFNLFRLESTYEIRQDIEDSVSRMKPWQSEYGGVVFGGWARMAQPIVAFTVVEVAKPNIGENWPTRVRADVTINLNVRDHIKDEWEGLRKHDVCFLITVRPTKPYGTKFDRRRPFIEQVGLVYVRGCEIQGMLDDKGRVIEDGPEPRPNLRGESRTFRVFLDPNQYQQDMTNTIQNGAEDVYETFNIIMRRKPKENNFKAVLETIRNLMNTDCVVPDWLHDIILGYGDPSSAHYSKMPNQIATLDFNDTFLSIEHLKASFPGHNVKVTVEDPALQIPPFRITFPVRSGKGKKRKDADVEDEDTEEAKTLIVEPHVIPNRGPYPYNQPKRNTIQFTHTQIEAIRAGMQPGLTMVVGPPGTGKTDVAVQIISNIYHNFPEQRTLIVTHSNQALNQLFEKIMALDIDERHLLRLGHGEEELETEKDFSRYGRVNYVLARRIELLEEVKRLQKSLGVPGDASYTCETAGYFFLYQVMSRWEEYISKVKNKGSTLPDVTEVSTFFPFHEYFANAPQPIFKGRSYEEDMEIAEGCFRHIKKIFTQLEEFRASELLRSGLDRSKYLLVKEAKIIAMTCTHAALKRHDLVKLGFKYDNILMEEAAQILEIETFIPLLLQNPQDGFSRLKRWIMIGDHHQLPPVIKNMAFQKYSNMEQSLFTRFVRVGVPTVDLDAQGRARASLCNLYNWRYKNLGNLPHVQLLPEFSTANAGLLYDFQLINVEDFQGVGESEPNPYFYQNLGEAEYVVALFMYMCLLGYPADKISILTTYNGQKHLIRDIINRRCGNNPLIGRPNKVTTVDRFQGQQNDYILLSLVRTRAVGHLRDVRRLVVAMSRARLGLYIFARVSLFQNCFELTPAFSQLTARPLHLHIIPTEPFPTTRKNGERPSHEVQIIKNMPQMANFVYNMYMHLIQTTHHYHQTLLQLPPAMVEEGEEVQNQETELETEEEAMTVQADIIPSPTDTSCRQETPAFQTDTTPSETGATSTPEAIPALSETTPTVVGAVSAPAEANTPQDATSAPEETK
For the molecule B1, the binding result in assay [1] and in assay [2] was “binds” each time.

B2: Nup35 (protein, UniProt Q8NFH5 1-326)
chain: MAAFAVEPQGPALGSEPMMLGSPTSPKPGVNAQFLPGFLMGDLPAPVTPQPRSISGPSVGVMEMRSPLLAGGSPPQPVVPAHKDKSGAPPVRSIYDDISSPGLGSTPLTSRRQPNISVMQSPLVGVTSTPGTGQSMFSPASIGQPRKTTLSPAQLDPFYTQGDSLTSEDHLDDSWVTVFGFPQASASYILLQFAQYGNILKHVMSNTGNWMHIRYQSKLQARKALSKDGRIFGESIMIGVKPCIDKSVMESSDRCALSSPSLAFTPPIKTLGTPTQPGSTPRISTMRPLATAYKASTSDYQVISDRQTPKKDESLVSKAMEYMFGW
For B2, the binding entry in assay [1] and in assay [2] was “binds” in each case.

B3: DDX42 (protein, UniProt Q86XP3 1-938)
chain: MNWNKGGPGTKRGFGFGGFAISAGKKEEPKLPQQSHSAFGATSSSSGFGKSAPPQLPSFYKIGSKRANFDEENAYFEDEEEDSSNVDLPYIPAENSPTRQQFHSKPVDSDSDDDPLEAFMAEVEDQAARDMKRLEEKDKERKNVKGIRDDIEEEDDQEAYFRYMAENPTAGVVQEEEEDNLEYDSDGNPIAPTKKIIDPLPPIDHSEIDYPPFEKNFYNEHEEITNLTPQQLIDLRHKLNLRVSGAAPPRPGSSFAHFGFDEQLMHQIRKSEYTQPTPIQCQGVPVALSGRDMIGIAKTGSGKTAAFIWPMLIHIMDQKELEPGDGPIAVIVCPTRELCQQIHAECKRFGKAYNLRSVAVYGGGSMWEQAKALQEGAEIVVCTPGRLIDHVKKKATNLQRVSYLVFDEADRMFDMGFEYQVRSIASHVRPDRQTLLFSATFRKKIEKLARDILIDPIRVVQGDIGEANEDVTQIVEILHSGPSKWNWLTRRLVEFTSSGSVLLFVTKKANAEELANNLKQEGHNLGLLHGDMDQSERNKVISDFKKKDIPVLVATDVAARGLDIPSIKTVINYDVARDIDTHTHRIGRTGRAGEKGVAYTLLTPKDSNFAGDLVRNLEGANQHVSKELLDLAMQNAWFRKSRFKGGKGKKLNIGGGGLGYRERPGLGSENMDRGNNNVMSNYEAYKPSTGAMGDRLTAMKAAFQSQYKSHFVAASLSNQKAGSSAAGASGWTSAGSLNSVPTNSAQQGHNSPDSPVTSAAKGIPGFGNTGNISGAPVTYPSAGAQGVNNTASGNNSREGTGGSNGKRERYTENRGSSRHSHGETGNRHSDSPRHGDGGRHGDGYRHPESSSRHTDGHRHGENRHGGSAGRHGENRGANDGRNGESRKEAFNRESKMEPKMEPKVDSSKMDKVDSKTDKTADGFAVPEPPKRKKSRWDS
Turning to B3, the binding result in assay [1] and in assay [2] was “binds” in each case.

B4: GPKOW (protein, UniProt Q92917 1-476)
chain: MADSKEGVLPLTAASTAPISFGFTRTSARRRLADSGDGAGPSPEEKDFLKTVEGRELQSVKPQEAPKELVIPLIQNGHRRQPPARPPGPSTDTGALADGVVSQAVKELIAESKKSLEERENAGVDPTLAIPMIQKGCTPSGEGADSEPRAETVPEEANYEAVPVEAYGLAMLRGMGWKPGEGIGRTFNQVVKPRVNSLRPKGLGLGANLTEAQALTPTGPSRMPRPDEEQEKDKEDQPQGLVPGGAVVVLSGPHRGLYGKVEGLDPDNVRAMVRLAVGSRVVTVSEYYLRPVSQQEFDKNTLDLRQQNGTASSRKTLWNQELYIQQDNSERKRKHLPDRQDGPAAKSEKAAPRSQHWLHRDLRVRFVDNMYKGGQYYNTKMIIEDVLSPDTCVCRTDEGRVLEGLREDMLETLVPKAEGDRVMVVLGPQTGRVGHLLSRDRARSRALVQLPRENQVVELHYDAICQYMGPSDTDDD
For the molecule B4, the binding entry in assay [1] and in assay [2] was “binds” each time.

B5: ISY1 (protein, UniProt Q9ULR0 1-285)
chain: MARNAEKAMTALARFRQAQLEEGKVKERRPFLASECTELPKAEKWRRQIIGEISKKVAQIQNAGLGEFRIRDLNDEINKLLREKGHWEVRIKELGGPDYGKVGPKMLDHEGKEVPGNRGYKYFGAAKDLPGVRELFEKEPLPPPRKTRAELMKAIDFEYYGYLDEDDGVIVPLEQEYEKKLRAELVEKWKAEREARLARGEKEEEEEEEEEINIYAVTEEESDEEGSQEKGGDDSQQKFIAHVPVPSQQEIEEALVRRKKMELLQKYASETLQAQSEEARRLLGY
As to B5, the binding entry in assay [1] and in assay [2] was “binds” throughout.

B6: XAB2 (protein, UniProt Q9HCS7 1-855)
chain: MVVMARLSRPERPDLVFEEEDLPYEEEIMRNQFSVKCWLRYIEFKQGAPKPRLNQLYERALKLLPCSYKLWYRYLKARRAQVKHRCVTDPAYEDVNNCHERAFVFMHKMPRLWLDYCQFLMDQGRVTHTRRTFDRALRALPITQHSRIWPLYLRFLRSHPLPETAVRGYRRFLKLSPESAEEYIEYLKSSDRLDEAAQRLATVVNDERFVSKAGKSNYQLWHELCDLISQNPDKVQSLNVDAIIRGGLTRFTDQLGKLWCSLADYYIRSGHFEKARDVYEEAIRTVMTVRDFTQVFDSYAQFEESMIAAKMETASELGREEEDDVDLELRLARFEQLISRRPLLLNSVLLRQNPHHVHEWHKRVALHQGRPREIINTYTEAVQTVDPFKATGKPHTLWVAFAKFYEDNGQLDDARVILEKATKVNFKQVDDLASVWCQCGELELRHENYDEALRLLRKATALPARRAEYFDGSEPVQNRVYKSLKVWSMLADLEESLGTFQSTKAVYDRILDLRIATPQIVINYAMFLEEHKYFEESFKAYERGISLFKWPNVSDIWSTYLTKFIARYGGRKLERARDLFEQALDGCPPKYAKTLYLLYAQLEEEWGLARHAMAVYERATRAVEPAQQYDMFNIYIKRAAEIYGVTHTRGIYQKAIEVLSDEHAREMCLRFADMECKLGEIDRARAIYSFCSQICDPRTTGAFWQTWKDFEVRHGNEDTIKEMLRIRRSVQATYNTQVNFMASQMLKVSGSATGTVSDLAPGQSGMDDMKLLEQRAEQLAAEAERDQPLRAQSKILFVRSDASREELAELAQQVNPEEIQLGEDEDEDEMDLEPNEVRLEQQSVPAAVFGSLKED
B6: the binding result in assay [1] and in assay [2] was “binds” throughout.
